Data reported in the supplement of paper PMC12889115.
The list shows a part of the results. Values are raw readings; no control value is given beside them.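 In the initial screen, polymyxin B was used at a concentration that permeabilizes Salmonella's outer membrane but not its inner membrane. Maximum growth was set by DMSO wells with or without polymyxin B. Since plates varied, data were ranked per plate, and compounds giving the lowest OD600 advanced as hits.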

Tested on: Salmonella enterica serovar Typhimurium SL1344
Experiment: bacterial growth OD600 after 18 h with compound and polymyxin B; higher = more bacterial growth (less inhibition)
Conditions: 50 µM, Mueller-Hinton broth

SMILES	bacterial growth OD600 (polymyxin B 1 µg/mL)	bacterial growth OD600 (polymyxin B 0.75 µg/mL)
COc1cccc(OCc2cc(C(=O)N3CCCC(CCCO)C3)no2)c1 (configuration not stated)	0.948	–
CC(NC(=O)C1CCN(C)CC1)c1nnc2n1CCN(Cc1ccc3c(c1)Cc1ccccc1-3)CC2 (configuration not stated)	–	0.859
Cc1ncoc1C(=O)N1CCC2(CCCN(Cc3cccc(F)c3F)C2=O)C1 (configuration not stated)	1.04	–
COc1ccc(NC2CCCN(C(=O)C3(C)CCCCC3)C2)cc1OC (configuration not stated)	0.88	–
O=C(NCCCN1CCOCC1)c1ccc2oc(CCc3ccccc3)nc2c1	0.907	–
O=C(CCc1nnc(C2(c3ccc(Cl)cc3)CCC2)o1)NCC1COCCO1 (configuration not stated)	0.796	–
O=C(CCc1cn[nH]c1)N1CCC(C2CCN(Cc3cccnc3)CC2)C1 (configuration not stated)	–	0.927
CCS(=O)(=O)Nc1cc(C(=O)NCCc2cnccn2)c2c(c1)nc(-c1ccccc1)n2C	–	0.864
COCC(C)NC(=O)Cc1c2c(n(Cc3ccccc3F)c1C)CCCC2=O (configuration not stated)	0.689	–
Cc1ccccc1SC1CCN(C(=O)C2CCC(=O)N(C3CC3)C2)CC1 (configuration not stated)	0.933	–
CCC1CN(Cc2ccc(OC)c(OC)c2)Cc2cc(OC)ccc2O1 (configuration not stated)	–	0.72
Cc1cccn2c(CN3CCN(C(C)C)CC3)c(C(=O)N(C)CCc3ccccc3)nc12	1.39	–
COCCN1C(=O)NC(Cc2ccc(F)cc2)(C2CCN(C(=O)c3sccc3Cl)CC2)C1=O (configuration not stated)	–	0.857
OC1CCN(c2nc3nonc3nc2N2CCCCCC2)CC1	–	0.819
c1ccc(Cc2noc(-c3ccc(NC4CCSC4)nc3)n2)cc1 (configuration not stated)	–	0.001
COc1cc(-c2cc(C)c3c(OC)ccc(OC)c3n2)cc2c1OCCN(C(C)=O)C2	–	0.888

SMILES	bacterial growth OD600 (polymyxin B 1 µg/mL)	bacterial growth OD600 (polymyxin B 0.75 µg/mL)
CCCN(CC1CCCO1)C(=O)c1cc(COc2cccc3cccnc23)on1 (configuration not stated)	0.934	–
O=C(CCC(F)(F)F)NC1CC(=O)N(Cc2cccc3ccccc23)C1 (configuration not stated)	0.833	–
Cc1cccc(CNC(=O)C2CC23CCN(C(=O)C(C)Oc2cccc(Cl)c2)CC3)n1 (configuration not stated)	–	0.774
CSc1ccccc1OCc1cc(C(=O)NCc2ccc(C)s2)no1	0.88	–
CCCCNC(=O)c1coc(COc2cccc3cnccc23)n1	0.848	–
Cc1occc1C(=O)Nc1nc2c(s1)C(=O)CC(C(=O)NCC1(N3CCOCC3)CCCC1)C2 (configuration not stated)	–	0.798
COc1ccc(CN2CCOc3ccc(CN4CCOCC4)cc3C2)cc1	–	0.88
CSCC(=O)N1CCc2[nH]nc(-c3ccccc3F)c2C1	–	0.797
Cn1c(-c2ccncc2)nc2cc(C(=O)NCC(C)(C)N3CCOCC3)cc(NC(=O)C3CCC3)c21	–	0.818
Cc1ccc(OCc2cc(C(=O)N3CCCC3c3nc4cc(F)ccc4[nH]3)no2)cn1 (configuration not stated)	1.14	–
Cc1n[nH]c(C)c1CN(C)C(=O)CC(c1cccc(O)c1)c1ccccc1Cl (configuration not stated)	0.832	–
CC(=O)c1ccc(C(=O)N2CCC(c3nc(-c4cccnc4)ncc3-c3ccccc3C)CC2)cc1	–	0.597
CN1CCC(Nc2ccc(-c3nc(-c4ccccc4F)no3)cn2)CC1	0.973	–
Cc1cc(CNC(=O)c2cnn(-c3nccc(-c4cc(C)sc4C)n3)c2C)on1	–	0.969
COCCCNc1ncnc2sc(C(=O)NCCC(C)C)c(C)c12	–	0.885
COc1cc(CNC(C)C)ccc1OCC(O)CN1CCSCC1 (configuration not stated)	1.09	–

Record cards, as listed above.
O=C(NCCCN1CCOCC1)c1ccc2oc(CCc3ccccc3)nc2c1 reads bacterial growth OD600 (polymyxin B 1 µg/mL): 0.907
Cc1ccccc1SC1CCN(C(=O)C2CCC(=O)N(C3CC3)C2)CC1 (configuration not stated) reads bacterial growth OD600 (polymyxin B 1 µg/mL): 0.933
